Data as given in PubChem BioAssay AID1259425 (University of Nebraska Medical Center, 2018)

Purpose: 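Seek colon cancer weak points whose silencing resembles KSR1 loss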 (primary screen)
Cells: HCT116 human colon cancer cells
Reagent: siRNA pool against human genes, 50 nM siRNA
Read-out: 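After 50 nM siRNA pool, branched-DNA assay measures six marker transcripts per well, minus blank, normalised to the geometric mean of two housekeeping transcripts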
Direction: BNIP3L mRNA: higher = more BNIP3L transcript after knockdown
This is an unselected part of about 14,000 reagents. Further read-outs or replicates are left out here. No sequences are given here. The record does not give: the time to read-out.

{"target": "PIGO", "BNIP3L mRNA, set 1": 0.0586}
{"target": "RAPGEF3", "BNIP3L mRNA, set 1": 0.125}
{"target": "RHBDD1", "BNIP3L mRNA, set 1": 0.357}
{"target": "BIRC7", "BNIP3L mRNA, set 1": 0.182}
{"target": "MED4", "BNIP3L mRNA, set 1": 0.0778}
{"target": "EIF1AY", "BNIP3L mRNA, set 1": 0.056}
{"target": "GH2", "BNIP3L mRNA, set 1": 0.0555}
{"target": "COX6A2", "BNIP3L mRNA, set 1": 0.0756}
{"target": "FBLIM1", "BNIP3L mRNA, set 1": 0.0698}
{"target": "G2E3", "BNIP3L mRNA, set 1": 0.914}
{"target": "SSX4", "BNIP3L mRNA, set 1": 0.081}
{"target": "RAP2A", "BNIP3L mRNA, set 1": 0.134}
